# Literature values as cited in patent publication US10878939B2, “Methods and compositions for personalized pain management” (Children's Hospital Medical Center, priority 2014, dated 2020).
# System: OCT1
# Details: cited from earlier work
smiles,measurement,setting,value
CN1CC[C@]23c4c5ccc(O)c4O[C@H]2[C@@H](O)C=C[C@H]3[C@H]1C5 [morphine],reduction of uptake rate when loss-of-function OCT1 polymorphisms were present,hepatocytes over-expressing OCT1,75-100%
same,"transporter-dependent uptake into hepatocytes, share of the total uptake",in vitro studies,about 60%
